Laboratory results as given in article PMC4481468.
Results are given in words; binding and its absence hold for the method and conditions named. Binding seen in cells or lysates may run through a third protein. Here binding means that the protein was enriched with, or labelled near, the bait; the list need not be complete.

Columns and labels:
[1] = molecular target: T1, Secreted protein acidic and rich in cysteine (SPARC) (rat (endogenous in liver and pancreas)) (UniProt P16975); assay: affinity purification with mass spectrometry; co-IP from pooled rat pancreas tissue lysates with anti-SPARC monoclonal antibody (4°C, 16 h) and protein A/G PLUS agarose beads (4°C, 12 h); 10% SDS-PAGE, silver staining, bands identified by MALDI-TOF peptide mass fingerprinting; rabbit and mouse IgG as controls
T1 sequence: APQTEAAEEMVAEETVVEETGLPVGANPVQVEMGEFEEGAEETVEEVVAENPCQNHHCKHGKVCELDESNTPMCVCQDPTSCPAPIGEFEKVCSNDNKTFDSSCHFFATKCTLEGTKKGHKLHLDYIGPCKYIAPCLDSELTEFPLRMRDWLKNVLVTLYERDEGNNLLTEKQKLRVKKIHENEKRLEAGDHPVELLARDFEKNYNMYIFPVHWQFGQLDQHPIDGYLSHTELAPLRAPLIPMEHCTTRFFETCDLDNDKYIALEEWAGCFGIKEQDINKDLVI

[2] = molecular target: T1, Secreted protein acidic and rich in cysteine (SPARC) (rat (endogenous in liver and pancreas)); assay: affinity purification with mass spectrometry; co-IP from pooled rat liver tissue lysates with anti-SPARC monoclonal antibody (4°C, 16 h) and protein A/G PLUS agarose beads (4°C, 12 h); 10% SDS-PAGE, silver staining, bands identified by MALDI-TOF peptide mass fingerprinting; rabbit and mouse IgG as controls

Molecule	binding [1]	binding [2]
Adenomatous polyposis coli protein 2 (APC2) (rat (endogenous in pancreas))	binds	
Carbonic anhydrase 3 (CA3) (enzyme, UniProt P14141 1-260) MAKEWGYASHNGPEHWHELYPIAKGDNQSPIELHTKDIRHDPSLQPWSVSYDPGSAKTILNNGKTCRVVFDDTFDRSMLRGGPLSGPYRLRQFHLHWGSSDDHGSEHTVDGVKYAAELHLVHWNPKYNTFGEALKQPDGIAVVGIFLKIGREKGEFQILLDALDKIKTKGKEAPFNHFDPSCLFPACRDYWTYHGSFTTPPCEECIVWLLLKEPMTVSSDQMAKLRSLFASAENEPPVPLVGNWRPPQPIKGRVVRASFK		binds
Carbamoyl-phosphate synthase (CPS1) (enzyme, UniProt P07756 39-1500) LSVKAQTAHIVLEDGTKMKGYSFGHPSSVAGEVVFNTGLGGYSEALTDPAYKGQILTMANPIIGNGGAPDTTARDELGLNKYMESDGIKVAGLLVLNYSHDYNHWLATKSLGQWLQEEKVPAIYGVDTRMLTKIIRDKGTMLGKIEFEGQSVDFVDPNKQNLIAEVSTKDVKVFGKGNPTKVVAVDCGIKNNVIRLLVKRGAEVHLVPWNHDFTQMDYDGLLIAGGPGNPALAQPLIQNVKKILESDRKEPLFGISTGNIITGLAAGAKSYKMSMANRGQNQPVLNITNRQAFITAQNHGYALDNTLPAGWKPLFVNVNDQTNEGIMHESKPFFAVQFHPEVSPGPTDTEYLFDSFFSLIKKGKGTTITSVLPKPALVASRVEVSKVLILGSGGLSIGQAGEFDYSGSQAVKAMKEENVKTVLMNPNIASVQTNEVGLKQADAVYFLPITPQFVTEVIKAERPDGLILGMGGQTALNCGVELFKRGVLKEYGVKVLGTSVESIMATEDRQLFSDKLNEINEKIAPSFAVESMEDALKAADTIGYPVMIRSAYALGGLGSGICPNKETLMDLGTKAFAMTNQILVERSVTGWKEIEYEVVRDADDNCVTVCNMENVDAMGVHTGDSVVVAPAQTLSNAEFQMLRRTSINVVRHLGIVGECNIQFALHPTSMEYCIIEVNARLSRSSALASKATGYPLAFIAAKIALGIPLPEIKNVVSGKTSACFEPSLDYMVTKIPRWDLDRFHGTSSRIGSSMKSVGEVMAIGRTFEESFQKALRMCHPSVDGFTPRLPMNKEWPANLDLRKELSEPSSTRIYAIAKALENNMSLDEIVKLTSIDKWFLYKMRDILNMDKTLKGLNSESVTEETLRQAKEIGFSDKQISKCLGLTEAQTRELRLKKNIHPWVKQIDTLAAEYPSVTNYLYVTYNGQEHDIKFDEHGIMVLGCGPYHIGSSVEFDWCAVSSIRTLRQLGKKTVVVNCNPETVSTDFDECDKLYFEELSLERILDIYHQEACNGCIISVGGQIPNNLAVPLYKNGVKIMGTSPLQIDRAEDRSIFSAVLDELKVAQAPWKAVNTLNEALEFANSVGYPCLLRPSYVLSGSAMNVVFSEDEMKRFLEEATRVSQEHPVVLTKFIEGAREVEMDAVGKEGRVISHAISEHVEDAGVHSGDATLMLPTQTISQGAIEKVKDATRKIAKAFAISGPFNVQFLVKGNDVLVIECNLRASRSFPFVSKTLGVDFIDVATKVMIGESVDEKHLPTLEQPIIPSDYVAIKAPMFSWPRLRDADPILRCEMASTGEVACFGEGIHTAFLKAMLSTGFKIPQKGILIGIQQSFRPRFLGVAEQLHNEGFKLFATEATSDWLNANNVPATPVAWPSQEGQNPSLSSIRKLIRDGSIDLVINLPNNNTKFVHDNYVIRRTAVDSGIALLTNFQVTKLFAEAVQKARTVDSKSLFHYRQYSAGKAA		binds
Betaine-homocysteine S-methyltransferase 1 (BHMT) (enzyme, UniProt O09171 1-407) MAPIAGKKAKRGILERLNAGEVVIGDGGFVFALEKRGYVKAGPWTPEAAVEHPEAVRQLHREFLRAGSNVMQTFTFYASEDKLENRGNYVAEKISGQKVNEAACDIARQVADEGDALVAGGVSQTPSYLSCKSETEVKKIFHQQLEVFMKKNVDFLIAEYFEHVEEAVWAVEALKTSGKPIAATMCIGPEGDLHGVSPGECAVRLVKAGAAIVGVNCHFDPSTSLQTIKLMKEGLEAARLKAYLMSHALAYHTPDCGKQGFIDLPEFPFGLEPRVATRWDIQKYAREAYNLGVRYIGGCCGFEPYHIRAIAEELAPERGFLPPASEKHGSWGSGLDMHTKPWIRARARKEYWQNLRIASGRPYNPSMSKPDAWGVTKGAAELMQQKEATTEQQLRALFEKQKFKSAQ		binds

Next, values leading:

binding [1]	binding [2]	Molecule
	binds	Rho GTPase-activating protein 20 (RARhoGAP) (rat (endogenous in liver))
binds		Pancreatic alpha-amylase (PA) (enzyme, UniProt P00689 16-508) QYDPHTADGRTAIVHLFEWRWADIAKECERYLAPKGFGGVQVSPPNENIIINNPSRPWWERYQPISYKICSRSGNENEFKDMVTRCNNVGVRIYVDAVINHMCGSGNSAGTHSTCGSYFNPNNREFSAVPYSAWYFNDNKCNGEINNYNDANQVRNCRLSGLLDLALDKDYVRTKVADYMNNLIDIGVAGFRLDAAKHMWPGDIKAVLDKLHNLNTKWFSQGSRPFIFQEVIDLGGEAIKGSEYFGNGRVTEFKYGAKLGTVIRKWNGEKMSYLKNWGEGWGFVPTDRALVFVDNHDNQRGHGAGGASILTFWDARMYKMAVGFMLAHPYGFTRVMSSYRRTRNFQNGKDVNDWIGPPNNNGVTKEVTINPDTTCGNDWVCEHRWRQIRNMVAFRNVVNGQPFANWWDNGSNQVAFSRGNRGFIVFNNDDWALSSTLQTGLPAGTYCDVISGDKVNGNCTGLKVNVGSDGKAHFSISNSAEDPFIAIHADSKL
